Experiment [1] addresses His-tagged human recombinant DDR-2 kinase domain (His-TEV-DDR2 467-855 aa) (Homo sapiens, UniProt Q16832). In words: Autophosphorylation assay for biochemical activity testing of DDR2 (HTRF). Particulars: read-out: IC50 [DDR2].
Experiment [2] addresses HEK293 transfected with human DDR2 (Homo sapiens, UniProt Q16832). The experiment is described as follows: Phospho-DDR2 cellular assay (collagen II induced DDR2 phosphorylation, ELISA). The experiment is classed as cell-based. Conditions: read-out: IC50 [p-DDR2]. As to the method: Assays were performed in a 384 well plate format, using cell line HEK293 transfected with human DDR2 (PLT460F_(DDR2)-P7-1)
Cells were seeded at a density of 10'000 cells/well in 384well poly-D-lysine coated Black/clear plate (Cellcoat Greiner) and incubated in DMEM medium in the presence of 10% fetal bovine serum at 37° C., 5% CO2 for 48 h. Medium was replaced by serum-free medium and cells were incubated at 37° C., 5% CO2 for 8 h. Compound to be tested in 5% DMSO or 5% DMSO and 50 μg/ml of chicken collagen II were added and cells were incubated at 37° C., 5% CO2 for 16 h
Cells were rinsed with ice-cold PBS, lysed with lysis buffer (M-PER Thermo #78501) for 30 min at room temperature and centrifuged for 1 min at 1000 RPM. In parallel, White High binding 384 well plates (Corning) were coated with mouse anti-human DDR2 capture antibody (R&D Systems kit DuoSet IC Human phospho-DDR2 ELISA), overnight at RT.
An aliquot of cell lysate was transferred to the coated plates and incubated for 2 h at RT. Plates were washed and mouse anti-phospho-tyrosine detection antibody (R&D Systems kit DuoSet IC Human phospho-DDR2 ELISA) conjugated to horse radish peroxidase (HRP) was added for 2 h at RT. Plates were washed and chemiluminescent substrate for HRP (Thermo) was added for 15 min at RT. Luminescence was measured on a luminometer.

Sequences of proteins named here, by UniProt entry; tags and fusion partners are left off. Residues count along the entry.
UniProt Q16832, 467-855 limits assumed: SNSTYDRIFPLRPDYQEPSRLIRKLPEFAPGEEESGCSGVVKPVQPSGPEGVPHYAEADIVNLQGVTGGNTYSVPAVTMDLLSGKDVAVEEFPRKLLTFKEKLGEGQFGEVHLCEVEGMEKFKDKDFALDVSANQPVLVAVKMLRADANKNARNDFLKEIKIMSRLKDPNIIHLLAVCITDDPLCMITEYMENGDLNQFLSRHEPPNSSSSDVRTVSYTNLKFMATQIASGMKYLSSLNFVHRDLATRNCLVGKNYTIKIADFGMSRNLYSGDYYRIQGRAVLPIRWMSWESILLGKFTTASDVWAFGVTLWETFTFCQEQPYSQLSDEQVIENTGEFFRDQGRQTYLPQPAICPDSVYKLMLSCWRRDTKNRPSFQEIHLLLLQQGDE
UniProt Q16832, 22-855 limits assumed: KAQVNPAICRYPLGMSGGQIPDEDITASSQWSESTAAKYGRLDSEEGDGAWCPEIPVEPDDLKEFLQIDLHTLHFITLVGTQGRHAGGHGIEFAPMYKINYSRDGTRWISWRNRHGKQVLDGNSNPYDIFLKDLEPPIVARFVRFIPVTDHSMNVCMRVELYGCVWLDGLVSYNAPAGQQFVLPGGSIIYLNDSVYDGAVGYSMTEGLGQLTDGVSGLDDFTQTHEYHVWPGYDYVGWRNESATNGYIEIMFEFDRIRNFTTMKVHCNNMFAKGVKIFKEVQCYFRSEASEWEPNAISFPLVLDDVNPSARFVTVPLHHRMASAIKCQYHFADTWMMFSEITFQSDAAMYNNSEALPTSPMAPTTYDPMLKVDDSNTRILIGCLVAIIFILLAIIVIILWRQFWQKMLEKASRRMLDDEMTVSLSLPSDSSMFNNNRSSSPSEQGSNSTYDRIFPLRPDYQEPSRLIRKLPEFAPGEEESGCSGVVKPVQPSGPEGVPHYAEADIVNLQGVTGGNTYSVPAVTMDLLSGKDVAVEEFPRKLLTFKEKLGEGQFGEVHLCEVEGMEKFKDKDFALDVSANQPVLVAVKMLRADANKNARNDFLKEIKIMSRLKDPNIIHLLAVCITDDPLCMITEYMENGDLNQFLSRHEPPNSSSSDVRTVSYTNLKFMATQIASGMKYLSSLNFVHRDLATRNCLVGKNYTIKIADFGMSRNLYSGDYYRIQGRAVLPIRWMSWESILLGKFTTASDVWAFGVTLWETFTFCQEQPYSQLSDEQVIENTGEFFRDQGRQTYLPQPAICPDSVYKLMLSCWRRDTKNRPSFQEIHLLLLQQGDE

Data on five compounds can be found in patent US20150225369A1, “DDR2 INHIBITORS FOR THE TREATMENT OF OSTEOARTHRITIS” (Merck Patent GmbH, priority 2012, published 2015).

The match of structure and compound is tentative.

As usually defined, the IC50 is the concentration that gives 50% inhibition.

With `CNCCOc1ccc(S(=O)(=O)C(F)(F)F)cc1NC(=O)NCc1ccc(Oc2ccnc(C(=O)NC)c2)cc1`, the results for the IC50 in experiment [1] and in experiment [2] were 710 nM and 320 nM, respectively.
As to `CNC(=O)c1cc(Oc2ccc(CNC(=O)Nc3cc(C)c(Cl)cc3OCCNC(C)=O)cc2)ccn1`, in experiment [1], the IC50 was found to be 300 nM.
As for `CNC(=O)c1cc(Oc2ccc(CNC(=O)Nc3cc(C(F)(F)F)ccc3OCCNC(C)=O)cc2)ccn1`, the IC50 in experiment [1] worked out at 140 nM.
Still for that read-out and setting: the result for `CNC(=O)c1cc(Oc2ccc(CNC(=O)Nc3cc(C(F)(F)F)c(Cl)cc3OCCNC(C)=O)cc2)ccn1` reads 61 nM.
On to `CNC(=O)c1cc(Oc2ccc(CNC(=O)Nc3ccccc3CCO)cc2C)ccn1`, for which, in experiment [2], the 50% inhibitory concentration (IC50) amounted to 15000 nM.
